Article doi:10.1101/2022.11.01.514783

T1: MORC7 (Arabidopsis) (UniProt F4JRS4)
T1 sequence: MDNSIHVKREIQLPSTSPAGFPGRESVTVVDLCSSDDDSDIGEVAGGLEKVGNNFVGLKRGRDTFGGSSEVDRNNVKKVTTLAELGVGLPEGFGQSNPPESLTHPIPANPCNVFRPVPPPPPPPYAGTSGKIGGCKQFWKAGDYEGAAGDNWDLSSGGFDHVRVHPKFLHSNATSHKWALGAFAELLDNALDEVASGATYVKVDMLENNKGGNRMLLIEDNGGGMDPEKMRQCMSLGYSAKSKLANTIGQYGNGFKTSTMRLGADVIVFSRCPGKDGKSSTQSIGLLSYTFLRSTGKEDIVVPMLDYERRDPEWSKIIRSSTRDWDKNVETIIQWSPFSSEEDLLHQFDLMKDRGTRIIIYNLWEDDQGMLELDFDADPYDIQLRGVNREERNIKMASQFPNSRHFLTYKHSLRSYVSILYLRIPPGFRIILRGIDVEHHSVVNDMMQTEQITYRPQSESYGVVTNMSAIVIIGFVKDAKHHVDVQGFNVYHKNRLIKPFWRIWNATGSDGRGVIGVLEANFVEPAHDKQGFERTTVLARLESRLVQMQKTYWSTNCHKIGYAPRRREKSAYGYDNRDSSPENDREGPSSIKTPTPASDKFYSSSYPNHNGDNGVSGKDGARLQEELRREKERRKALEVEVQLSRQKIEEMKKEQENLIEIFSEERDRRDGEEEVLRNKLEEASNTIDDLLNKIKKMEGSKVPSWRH

B1: TOPLESS (TPL) (protein, UniProt Q94AI7 1-1131)
chain: MSSLSRELVFLILQFLDEEKFKETVHKLEQESGFFFNMKYFEDEVHNGNWDEVEKYLSGFTKVDDNRYSMKIFFEIRKQKYLEALDKHDRPKAVDILVKDLKVFSTFNEELFKEITQLLTLENFRENEQLSKYGDTKSARAIMLVELKKLIEANPLFRDKLQFPTLRNSRLRTLINQSLNWQHQLCKNPRPNPDIKTLFVDHSCGPPNGARAPSPVNNPLLGGIPKAGGFPPLGAHGPFQPTASPVPTPLAGWMSSPSSVPHPAVSAGAIALGGPSIPAALKHPRTPPTNASLDYPSADSEHVSKRTRPMGISDEVNLGVNMLPMSFSGQAHGHSPAFKAPDDLPKTVARTLSQGSSPMSMDFHPIKQTLLLVGTNVGDIGLWEVGSRERLVQKTFKVWDLSKCSMPLQAALVKEPVVSVNRVIWSPDGSLFGVAYSRHIVQLYSYHGGEDMRQHLEIDAHVGGVNDISFSTPNKQLCVITCGDDKTIKVWDAATGVKRHTFEGHEAPVYSVCPHYKENIQFIFSTALDGKIKAWLYDNMGSRVDYDAPGRWCTTMAYSADGTRLFSCGTSKDGESFIVEWNESEGAVKRTYQGFHKRSLGVVQFDTTKNRYLAAGDDFSIKFWDMDAVQLLTAIDGDGGLQASPRIRFNKEGSLLAVSGNENVIKIMANSDGLRLLHTFENISSESSKPAINSIAAAAAAAATSAGHADRSANVVSIQGMNGDSRNMVDVKPVITEESNDKSKIWKLTEVSEPSQCRSLRLPENLRVAKISRLIFTNSGNAILALASNAIHLLWKWQRNERNATGKATASLPPQQWQPASGILMTNDVAETNPEEAVPCFALSKNDSYVMSASGGKISLFNMMTFKTMATFMPPPPAATFLAFHPQDNNIIAIGMDDSTIQIYNVRVDEVKSKLKGHSKRITGLAFSNVLNVLVSSGADAQLCVWNTDGWEKQRSKVLPLPQGRPNSAPSDTRVQFHQDQAHFLVVHETQLAIYETTKLECMKQWAVRESLAPITHATFSCDSQLVYASFMDATVCVFSSANLRLRCRVNPSAYLPASLSNSNVHPLVIAAHPQEPNMFAVGLSDGGVHIFEPLESEGKWGVAPPAENGSASGAPTAPSVGASASDQPQR
B2: LEUNIG (LUG) (protein, UniProt Q9FUY2 1-931)
chain: MSQTNWEADKMLDVYIHDYLVKRDLKATAQAFQAEGKVSSDPVAIDAPGGFLFEWWSVFWDIFIARTNEKHSEVAASYIETQMIKAREQQLQQSQHPQVSQQQQQQQQQQIQMQQLLLQRAQQQQQQQQQQHHHHQQQQQQQQQQQQQQQQQQQQHQNQPPSQQQQQQSTPQHQQQPTPQQQPQRRDGSHLANGSANGLVGNNSEPVMRQNPGSGSSLASKAYEERVKMPTQRESLDEAAMKRFGDNVGQLLDPSHASILKSAAASGQPAGQVLHSTSGGMSPQVQTRNQQLPGSAVDIKSEINPVLTPRTAVPEGSLIGIPGSNQGSNNLTLKGWPLTGFDQLRSGLLQQQKPFMQSQSFHQLNMLTPQHQQQLMLAQQNLNSQSVSEENRRLKMLLNNRSMTLGKDGLGSSVGDVLPNVGSSLQPGGSLLPRGDTDMLLKLKMALLQQQQQNQQQGGGNPPQPQPQPQPLNQLALTNPQPQSSNHSIHQQEKLGGGGSITMDGSISNSFRGNEQVLKNQSGRKRKQPVSSSGPANSSGTANTAGPSPSSAPSTPSTHTPGDVISMPNLPHSGGSSKSMMMFGTEGTGTLTSPSNQLADMDRFVEDGSLDDNVESFLSQEDGDQRDAVTRCMDVSKGFTFTEVNSVRASTTKVTCCHFSSDGKMLASAGHDKKAVLWYTDTMKPKTTLEEHTAMITDIRFSPSQLRLATSSFDKTVRVWDADNKGYSLRTFMGHSSMVTSLDFHPIKDDLICSCDNDNEIRYWSINNGSCTRVYKGGSTQIRFQPRVGKYLAASSANLVNVLDVETQAIRHSLQGHANPINSVCWDPSGDFLASVSEDMVKVWTLGTGSEGECVHELSCNGNKFQSCVFHPAYPSLLVIGCYQSLELWNMSENKTMTLPAHEGLITSLAVSTATGLVASASHDKLVKLWK

Molecular target: T1, MORC7 (Arabidopsis)
Assay: affinity purification with mass spectrometry

Binder | binding
B1 | binds
B2 | binds

Results are given in words; binding and its absence hold for the method and conditions named. Binding seen in cells or lysates may run through a third protein. Here binding means that the protein was enriched with, or labelled near, the bait; the list need not be complete.
